According to article PMC10745926, “Synthesis and Evaluation of Compound Targeting α7 and β2 Subunits in Nicotinic Acetylcholinergic Receptor” (Molecules, 2023):
Results are given in words; binding and its absence hold for the method and conditions named. Some entries that bind do so weakly or less than the wild type.

Protein sequences, listed by entry. Tags and fused reporters are not part of them. Residues count along the entry.
UniProt P49582, residues 23-502: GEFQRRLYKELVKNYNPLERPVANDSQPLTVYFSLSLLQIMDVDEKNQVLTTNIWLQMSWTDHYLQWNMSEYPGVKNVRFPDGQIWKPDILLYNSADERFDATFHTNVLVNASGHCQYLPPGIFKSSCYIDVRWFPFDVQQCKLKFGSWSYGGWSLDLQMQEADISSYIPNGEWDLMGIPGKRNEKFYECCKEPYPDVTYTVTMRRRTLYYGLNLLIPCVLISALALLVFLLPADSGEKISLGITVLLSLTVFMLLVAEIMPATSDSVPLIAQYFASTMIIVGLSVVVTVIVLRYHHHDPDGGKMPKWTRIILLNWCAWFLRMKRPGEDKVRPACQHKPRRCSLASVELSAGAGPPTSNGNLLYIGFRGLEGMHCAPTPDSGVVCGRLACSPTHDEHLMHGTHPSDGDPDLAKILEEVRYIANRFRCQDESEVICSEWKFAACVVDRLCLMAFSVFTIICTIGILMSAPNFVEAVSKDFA
UniProt Q05941, residues 23-502: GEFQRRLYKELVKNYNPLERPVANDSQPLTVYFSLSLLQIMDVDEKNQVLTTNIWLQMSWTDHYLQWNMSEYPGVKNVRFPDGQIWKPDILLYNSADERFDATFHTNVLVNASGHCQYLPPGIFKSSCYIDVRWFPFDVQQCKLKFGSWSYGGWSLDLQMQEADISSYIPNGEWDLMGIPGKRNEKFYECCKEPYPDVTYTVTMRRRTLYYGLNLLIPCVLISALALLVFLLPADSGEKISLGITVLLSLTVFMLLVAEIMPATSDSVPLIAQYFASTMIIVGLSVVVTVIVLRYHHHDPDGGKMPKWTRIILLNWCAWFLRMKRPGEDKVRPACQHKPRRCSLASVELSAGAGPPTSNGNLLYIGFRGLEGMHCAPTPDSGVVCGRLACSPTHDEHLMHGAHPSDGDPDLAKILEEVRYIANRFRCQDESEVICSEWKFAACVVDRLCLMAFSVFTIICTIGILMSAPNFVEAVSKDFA
UniProt P60615, residues 22-95: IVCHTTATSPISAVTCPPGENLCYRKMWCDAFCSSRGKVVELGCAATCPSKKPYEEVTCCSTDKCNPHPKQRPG

Columns and labels:
[1] = target: α7 nAChR (mouse brain) (mouse (endogenous in C57BL/6 mouse brain slices)) (UniProt P49582); assay: radioligand binding; only the binder purified
[2] = target: α7 nAChR (rat brain) (rat (endogenous in Sprague Dawley rat brain slices)) (UniProt Q05941); assay: radioligand binding; only the binder purified

Substance: [^125I]α-iodobungarotoxin (from UniProt P60615 22-95) (ligand)
- binding [1]: binds
- binding [2]: binds
